Measurements reported in PubChem BioAssay AID1487 (National Center for Advancing Translational Sciences (NCATS), 2009).
Where “and” joins values, the source holds several entries; their conditions need not be identical. Identical values can stand only once. The list shows a part of the results. Shown are side measurements of this screen, not its main read-out; they come without a call. Compounds called inactive in the main read-out are mostly missing here. The note in brackets gives the kind of curve behind each potency; many fits are weak.

Assay: qHTS Assay for Modulators of Lamin A Splicing
Details: HeLa LMNA splicing GFP/RFP minigene ratio, 48 h
Method in brief: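 S3 HeLa cells stably expressing lamin A-EGFP splicing minigene plus DsRed2, 600 cells/well, 48 h compound exposure at 37C. Laser-scanning cytometry; analysed as GFP (500-530 nm)/RFP (575-640 nm) total intensity ratio; 0.5% DMSO vehicle.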

[1] = measured here: GFP splicing reporter channel
[2] = measured here: RFP viability control channel

Structure (SMILES)	AC50 [1]	AC50 [2]
CCOC(=O)c1c(C)[nH]c(C(=O)NCc2ccco2)c1C	0.141 µM [rising, full curve, poor fit]	–
CCNCCNC(=O)c1c(O)c2cccc3c2n(c1=O)CCC3	31.6 µM [rising, single point]	–
CCCCOC(=O)C1=C(C)Nc2ncnn2C1c1ccc(OC)c(OC)c1 (configuration not stated)	2.82 µM [falling, single point]	6.31 µM [falling, partial curve, poor fit]
CCC(=O)N1c2ccccc2C(N(C(C)=O)c2ccccc2)CC1C (configuration not stated)	–	20 µM [rising, single point]
CCOc1cc(CNCc2ccncc2)cc(Br)c1OCc1ccc(F)cc1	11.2 µM [rising, single point]	15.8 µM [rising, single point]
O=C(c1ccc(S(=O)(=O)N2CCCC2)cc1)N1CCCc2ccccc21	–	22.4 µM [rising, partial curve, poor fit]
CCCCc1nn2c(=O)cc(COC(=O)c3cccs3)nc2s1	0.01 µM [falling, full curve, poor fit]	0.00891 µM [falling, full curve, poor fit]
CCN(CC)S(=O)(=O)c1ccc(C(=O)Nc2nnc(COC)o2)cc1	11.2 µM [falling, partial curve]	–
CCOC(=O)c1cc(C)n(Cc2ccc(OCC)c(OC)c2)c1C	–	35.5 µM [rising, single point]
O=c1c(-c2ccccc2)nc2cnc(Oc3cccc(Cl)c3)nc2n1C[C@H]1CCCO1	0.224 µM [falling, partial curve]	–
Nc1cc(=O)[nH]c(SCC(=O)NNC(=O)Cc2ccccc2)n1	0.00316 µM [falling, full curve, poor fit]	0.00316 µM [falling, full curve, poor fit]
Cn1cc([N+](=O)[O-])c(C(=O)Nc2ccc(Br)cn2)n1	12.6 µM [falling, partial curve]	25.1 µM [falling, single point]
Cc1ccc(NC(=O)CSC2=C(C#N)C(c3ccco3)C3=C(CC(C)(C)CC3=O)N2)cc1 (configuration not stated)	–	17.8 µM [rising, single point]
Cc1ccc(C(=O)c2c[nH]c3c(F)cc(F)cc3c2=O)cc1	–	3.55 µM [rising, full curve, poor fit]
CC1=C(C(=O)N(C)Cc2ccccc2)C2(CCC(C)CC2)OC1=O (configuration not stated)	–	25.1 µM [rising, single point]
CCOc1cccc(C(=O)Nc2cccc(NC(=O)c3ccco3)c2)c1	14.1 µM [falling, single point]	22.4 µM [falling, single point]
CC(C)n1c(NCCc2ccccc2)nc2c1c(=O)n(C)c(=O)n2C	7.94 µM [rising, partial curve]	12.6 µM [rising, partial curve]

Structure (SMILES)	AC50 [1]	AC50 [2]
COc1cccc(Nc2ncc3ncc(=O)n(Cc4cccs4)c3n2)c1	8.91 µM [falling, partial curve]	10 µM [falling, partial curve]
C/C(=N\NC(=O)C(N)=O)c1ccc(OC(F)F)cc1	0.158 µM [falling, full curve, poor fit]	–
CC(C)C[C@H](NC(=O)Nc1ccc(S(N)(=O)=O)cc1)C(=O)O	0.02 µM [rising, full curve, poor fit]	0.00501 µM [rising, full curve, poor fit]
O=C(COC(=O)C12CC3CC(CC(Br)(C3)C1)C2)N1CCOCC1	–	0.0631 µM [falling, full curve, poor fit]
N#Cc1ccccc1NC(=O)C(=O)NCC(c1cccnc1)N1CCc2ccccc21 (configuration not stated)	1.41 µM [rising, full curve]	–
CCOC(=O)N1CCN(S(=O)(=O)c2ccc(C(=O)Nc3nnc(CSC)o3)cc2)CC1	35.5 µM [rising, single point]	35.5 µM [rising, single point]
COc1ccc(NC(=O)c2ccc(-c3nn(C)c(=O)c4ccccc34)cc2)cc1	3.98 µM [falling, full curve, poor fit]	0.0251 µM [falling, full curve, poor fit]
COc1ccccc1-c1cc(C(=O)N/N=C/c2ccc(C)s2)c2ccccc2n1	–	11.2 µM [rising, partial curve]
CC(C)NNC(=O)c1ccncc1	7.08 nM [falling, full curve, poor fit] and 3.98 µM [falling, partial curve, poor fit]	0.00501 µM [falling, full curve, poor fit]
CC(C)(C)n1nnnc1C(c1ccc(F)cc1)N(Cc1ccc(F)cc1)Cc1ccco1 (configuration not stated)	–	22.4 µM [rising, single point]
CCOC(=O)N1CCC(N2CCCC(C(=O)c3ccc4cc(OC)ccc4c3)C2)CC1 (configuration not stated)	7.08 µM [falling, partial curve, poor fit]	–
CC(C)CN1C=C2C(=O)C(C)(OC(=O)CCc3ccccc3)C(=O)C=C2C=C1c1ccc(C#N)cc1 (configuration not stated)	0.000794 µM [rising, full curve, poor fit]	–
COc1ccc([N+](=O)[O-])cc1NC(=O)C(C)OC(=O)c1ccccc1C(=O)c1ccc(Cl)cc1 (configuration not stated)	–	11.2 µM [rising, partial curve, poor fit]
CCn1c(-c2ccc([N+](=O)[O-])cc2)n[nH]c1=S	12.6 µM [rising, single point]	–
COc1cc(/C=N/NC(N)=S)ccc1OCc1ccc(C)cc1	2.24 µM [rising, full curve, poor fit]	12.6 µM [rising, partial curve, poor fit]
COc1cccc(N(CC(=O)N/N=C(\C)c2cccs2)S(C)(=O)=O)c1	15.8 µM [rising, single point]	35.5 µM [rising, single point]
